The other results are listed elsewhere or left out.
Assays:
Experiment in all cases: log2 fold change, soluble protein after heating vs DMSO (PISA); higher = thermal stabilisation; K562 lysate, 10 uM; active = over 0.2 and 3.5 SD of the protein, either way, in both replicates (recomputed)
[1] = compound: NCC(=O)Nc1ccc(-n2nc(C(F)(F)F)cc2-c2ccc3c(ccc4ccccc43)c2)cc1
Summary of the method: (§1)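 To prepare the extract, K562 pellets were dounce-homogenised in PBS pH 7.4 with 1 mM MgCl2, giving crude material at 1 mg/mL protein. This was treated with 10 μM compound for 30 min, then heated in aliquots for 3 min over 48°C-58°C before pooling and addition of NP-40 to 0.5% at 4°C. Centrifugation at 21,000xg for 90 min left soluble protein in the supernatant, which TMTpro 16plex LC-MS/MS quantified with equalised channel sums. Results are log-two fold changes in thermal stability compared with solvent controls, from duplicates.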

The chains behind the UniProt entries cited, without tags or fusion partners. Where a name states a change or a piece, a line headed by the entry shows the natural chain unless it says otherwise.
UniProt P52824: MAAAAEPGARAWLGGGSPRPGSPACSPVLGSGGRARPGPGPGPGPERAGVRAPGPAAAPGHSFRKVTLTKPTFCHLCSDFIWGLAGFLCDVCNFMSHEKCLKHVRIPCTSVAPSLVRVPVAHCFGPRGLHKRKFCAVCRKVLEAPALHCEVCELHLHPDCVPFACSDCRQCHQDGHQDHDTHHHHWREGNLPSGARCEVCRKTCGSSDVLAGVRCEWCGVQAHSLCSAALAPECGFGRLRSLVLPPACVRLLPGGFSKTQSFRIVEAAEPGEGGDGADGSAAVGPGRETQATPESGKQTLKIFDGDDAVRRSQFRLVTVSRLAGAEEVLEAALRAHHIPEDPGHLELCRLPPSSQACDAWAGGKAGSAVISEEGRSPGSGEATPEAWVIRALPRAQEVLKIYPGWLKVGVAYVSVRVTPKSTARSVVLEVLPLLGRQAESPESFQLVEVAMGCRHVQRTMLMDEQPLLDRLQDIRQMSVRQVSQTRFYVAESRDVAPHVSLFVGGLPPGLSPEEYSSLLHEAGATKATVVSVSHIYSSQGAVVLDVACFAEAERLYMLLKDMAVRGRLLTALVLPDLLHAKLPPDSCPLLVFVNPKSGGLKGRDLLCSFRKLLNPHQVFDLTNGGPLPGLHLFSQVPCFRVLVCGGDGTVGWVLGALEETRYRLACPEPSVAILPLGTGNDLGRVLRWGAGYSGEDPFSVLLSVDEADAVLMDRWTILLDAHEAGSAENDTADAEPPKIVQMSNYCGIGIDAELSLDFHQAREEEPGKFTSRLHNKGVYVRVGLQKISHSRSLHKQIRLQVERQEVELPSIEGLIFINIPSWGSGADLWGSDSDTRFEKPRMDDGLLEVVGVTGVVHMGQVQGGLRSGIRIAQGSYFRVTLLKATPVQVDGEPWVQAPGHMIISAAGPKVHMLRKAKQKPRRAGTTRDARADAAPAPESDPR
UniProt Q9H3H5: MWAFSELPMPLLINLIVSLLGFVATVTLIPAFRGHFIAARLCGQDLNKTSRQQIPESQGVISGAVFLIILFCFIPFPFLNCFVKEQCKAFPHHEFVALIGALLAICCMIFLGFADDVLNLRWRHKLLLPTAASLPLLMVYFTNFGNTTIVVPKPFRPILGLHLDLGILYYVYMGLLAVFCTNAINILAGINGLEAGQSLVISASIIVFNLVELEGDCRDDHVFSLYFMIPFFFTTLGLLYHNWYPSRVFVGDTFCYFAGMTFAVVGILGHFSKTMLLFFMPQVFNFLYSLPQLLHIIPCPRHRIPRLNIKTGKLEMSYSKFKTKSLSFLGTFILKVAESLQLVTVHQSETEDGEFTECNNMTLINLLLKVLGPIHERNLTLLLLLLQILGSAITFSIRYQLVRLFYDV
UniProt Q9UBS3: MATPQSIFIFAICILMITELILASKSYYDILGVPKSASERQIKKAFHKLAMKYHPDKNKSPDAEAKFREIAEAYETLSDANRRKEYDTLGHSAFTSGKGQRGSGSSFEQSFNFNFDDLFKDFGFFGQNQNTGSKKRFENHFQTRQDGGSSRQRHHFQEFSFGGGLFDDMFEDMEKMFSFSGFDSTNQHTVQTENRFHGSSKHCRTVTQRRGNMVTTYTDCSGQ
UniProt P25686: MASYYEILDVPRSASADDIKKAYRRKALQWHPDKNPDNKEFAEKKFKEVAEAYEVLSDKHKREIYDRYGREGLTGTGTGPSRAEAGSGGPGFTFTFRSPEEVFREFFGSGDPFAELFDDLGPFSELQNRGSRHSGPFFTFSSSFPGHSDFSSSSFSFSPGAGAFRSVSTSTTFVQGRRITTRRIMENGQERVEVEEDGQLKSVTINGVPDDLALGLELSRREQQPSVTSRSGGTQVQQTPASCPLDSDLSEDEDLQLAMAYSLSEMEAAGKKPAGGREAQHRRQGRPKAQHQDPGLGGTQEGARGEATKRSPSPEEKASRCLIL
UniProt Q96HY7: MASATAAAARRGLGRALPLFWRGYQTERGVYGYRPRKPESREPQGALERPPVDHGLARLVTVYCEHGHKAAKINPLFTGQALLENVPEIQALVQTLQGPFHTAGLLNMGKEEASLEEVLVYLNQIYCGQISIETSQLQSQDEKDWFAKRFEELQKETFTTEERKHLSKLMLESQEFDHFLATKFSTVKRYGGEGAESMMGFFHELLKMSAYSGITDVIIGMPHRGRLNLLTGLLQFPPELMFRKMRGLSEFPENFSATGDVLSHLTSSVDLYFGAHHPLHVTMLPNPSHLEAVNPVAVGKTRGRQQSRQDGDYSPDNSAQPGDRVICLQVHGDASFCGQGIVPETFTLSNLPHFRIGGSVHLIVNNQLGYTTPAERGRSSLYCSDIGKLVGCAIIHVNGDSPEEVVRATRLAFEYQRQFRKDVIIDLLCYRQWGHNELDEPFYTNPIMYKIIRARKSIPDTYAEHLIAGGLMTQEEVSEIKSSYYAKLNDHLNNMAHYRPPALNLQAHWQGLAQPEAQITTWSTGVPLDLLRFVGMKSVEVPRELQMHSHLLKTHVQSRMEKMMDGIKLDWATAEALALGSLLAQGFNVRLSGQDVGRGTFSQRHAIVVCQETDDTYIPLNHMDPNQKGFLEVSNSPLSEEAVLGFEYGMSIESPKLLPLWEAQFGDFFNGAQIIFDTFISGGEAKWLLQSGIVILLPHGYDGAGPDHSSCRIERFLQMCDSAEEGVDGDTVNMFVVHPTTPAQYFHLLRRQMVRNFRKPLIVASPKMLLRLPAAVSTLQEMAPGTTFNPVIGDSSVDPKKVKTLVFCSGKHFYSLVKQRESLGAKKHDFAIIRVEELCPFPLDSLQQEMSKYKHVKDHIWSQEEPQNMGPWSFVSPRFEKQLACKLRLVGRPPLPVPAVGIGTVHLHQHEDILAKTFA
UniProt P23743: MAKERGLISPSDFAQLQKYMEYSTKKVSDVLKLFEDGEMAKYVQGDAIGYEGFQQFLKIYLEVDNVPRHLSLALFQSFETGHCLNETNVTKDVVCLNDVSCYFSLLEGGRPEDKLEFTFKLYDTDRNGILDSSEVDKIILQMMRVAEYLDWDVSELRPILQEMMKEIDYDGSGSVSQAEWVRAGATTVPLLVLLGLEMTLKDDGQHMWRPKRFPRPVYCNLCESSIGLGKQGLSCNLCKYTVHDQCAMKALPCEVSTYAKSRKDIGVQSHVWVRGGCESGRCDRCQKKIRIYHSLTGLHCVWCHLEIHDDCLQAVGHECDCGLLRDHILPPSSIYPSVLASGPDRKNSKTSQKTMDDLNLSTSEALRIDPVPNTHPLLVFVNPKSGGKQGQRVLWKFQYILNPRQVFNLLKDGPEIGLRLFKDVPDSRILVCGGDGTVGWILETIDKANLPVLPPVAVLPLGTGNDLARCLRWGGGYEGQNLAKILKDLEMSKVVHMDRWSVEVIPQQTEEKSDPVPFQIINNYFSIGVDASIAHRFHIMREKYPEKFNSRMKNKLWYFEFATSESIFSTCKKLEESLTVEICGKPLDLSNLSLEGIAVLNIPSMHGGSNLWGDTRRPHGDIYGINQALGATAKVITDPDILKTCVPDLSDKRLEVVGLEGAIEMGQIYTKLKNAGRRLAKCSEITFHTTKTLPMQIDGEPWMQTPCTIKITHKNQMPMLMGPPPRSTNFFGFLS
UniProt Q5T7M9: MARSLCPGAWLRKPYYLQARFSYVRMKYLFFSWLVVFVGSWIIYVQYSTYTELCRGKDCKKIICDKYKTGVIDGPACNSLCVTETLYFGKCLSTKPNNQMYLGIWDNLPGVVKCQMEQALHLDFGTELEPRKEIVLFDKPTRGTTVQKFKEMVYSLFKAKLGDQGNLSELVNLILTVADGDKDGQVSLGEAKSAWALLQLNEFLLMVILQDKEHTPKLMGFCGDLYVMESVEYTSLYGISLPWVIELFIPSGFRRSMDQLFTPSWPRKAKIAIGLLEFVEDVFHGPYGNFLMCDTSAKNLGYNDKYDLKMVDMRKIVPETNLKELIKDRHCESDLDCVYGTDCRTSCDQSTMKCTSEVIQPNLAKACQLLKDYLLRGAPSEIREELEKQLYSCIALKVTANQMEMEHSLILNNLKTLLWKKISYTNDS
UniProt Q96EY1: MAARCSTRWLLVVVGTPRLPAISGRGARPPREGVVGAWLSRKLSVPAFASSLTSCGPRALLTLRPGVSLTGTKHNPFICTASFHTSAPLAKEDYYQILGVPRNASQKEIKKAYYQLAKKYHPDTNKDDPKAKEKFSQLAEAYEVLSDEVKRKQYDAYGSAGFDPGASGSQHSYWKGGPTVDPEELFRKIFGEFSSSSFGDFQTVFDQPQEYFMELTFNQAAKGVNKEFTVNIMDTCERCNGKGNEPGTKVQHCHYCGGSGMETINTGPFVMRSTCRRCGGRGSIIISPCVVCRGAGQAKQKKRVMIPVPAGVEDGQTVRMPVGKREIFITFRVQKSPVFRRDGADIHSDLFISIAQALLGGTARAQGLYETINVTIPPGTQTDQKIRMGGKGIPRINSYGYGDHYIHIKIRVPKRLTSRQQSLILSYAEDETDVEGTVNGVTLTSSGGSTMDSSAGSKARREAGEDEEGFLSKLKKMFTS
UniProt P26358: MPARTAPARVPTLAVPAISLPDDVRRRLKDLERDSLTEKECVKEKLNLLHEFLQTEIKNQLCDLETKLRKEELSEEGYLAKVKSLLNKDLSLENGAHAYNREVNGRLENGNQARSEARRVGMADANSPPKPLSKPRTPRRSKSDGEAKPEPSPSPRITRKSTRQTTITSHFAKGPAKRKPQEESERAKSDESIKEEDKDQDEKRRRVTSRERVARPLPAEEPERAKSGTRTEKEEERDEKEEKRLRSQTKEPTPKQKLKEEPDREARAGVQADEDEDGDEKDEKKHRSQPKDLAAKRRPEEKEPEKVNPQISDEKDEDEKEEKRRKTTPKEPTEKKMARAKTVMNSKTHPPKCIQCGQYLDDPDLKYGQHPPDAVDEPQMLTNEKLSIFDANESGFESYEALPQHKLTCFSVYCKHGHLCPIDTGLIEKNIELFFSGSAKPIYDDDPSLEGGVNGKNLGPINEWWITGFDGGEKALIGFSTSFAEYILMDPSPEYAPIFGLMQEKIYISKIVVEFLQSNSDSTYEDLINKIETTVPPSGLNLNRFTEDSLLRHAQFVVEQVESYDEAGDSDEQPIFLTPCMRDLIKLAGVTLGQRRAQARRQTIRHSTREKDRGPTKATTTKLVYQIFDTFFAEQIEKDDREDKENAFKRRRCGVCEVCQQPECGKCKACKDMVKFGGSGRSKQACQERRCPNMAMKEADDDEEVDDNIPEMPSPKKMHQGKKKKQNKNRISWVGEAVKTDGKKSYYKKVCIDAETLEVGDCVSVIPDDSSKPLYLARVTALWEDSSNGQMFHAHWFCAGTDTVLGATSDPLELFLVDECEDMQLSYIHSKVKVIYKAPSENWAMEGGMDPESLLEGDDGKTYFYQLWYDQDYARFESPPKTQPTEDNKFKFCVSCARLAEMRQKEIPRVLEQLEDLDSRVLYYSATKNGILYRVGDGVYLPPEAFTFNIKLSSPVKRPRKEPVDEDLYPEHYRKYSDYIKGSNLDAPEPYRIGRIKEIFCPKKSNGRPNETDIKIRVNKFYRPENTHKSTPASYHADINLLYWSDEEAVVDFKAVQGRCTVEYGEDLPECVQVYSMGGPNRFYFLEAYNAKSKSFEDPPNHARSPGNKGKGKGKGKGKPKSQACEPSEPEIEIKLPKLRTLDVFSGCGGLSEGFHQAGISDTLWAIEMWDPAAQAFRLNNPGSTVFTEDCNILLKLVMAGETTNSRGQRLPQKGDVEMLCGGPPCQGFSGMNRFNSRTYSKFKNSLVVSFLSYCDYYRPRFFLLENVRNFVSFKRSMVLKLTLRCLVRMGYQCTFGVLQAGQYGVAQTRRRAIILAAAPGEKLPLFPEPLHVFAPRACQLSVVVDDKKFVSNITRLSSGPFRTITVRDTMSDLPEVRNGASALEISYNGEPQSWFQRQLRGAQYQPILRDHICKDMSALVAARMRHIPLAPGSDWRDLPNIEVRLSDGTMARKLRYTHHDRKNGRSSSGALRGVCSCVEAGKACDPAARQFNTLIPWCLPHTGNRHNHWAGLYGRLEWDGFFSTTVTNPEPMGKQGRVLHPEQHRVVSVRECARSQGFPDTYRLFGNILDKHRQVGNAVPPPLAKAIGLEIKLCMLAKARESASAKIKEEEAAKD

vorinostat = compound: O=C(CCCCCCC(=O)Nc1ccccc1)NO [vorinostat]
Summary of the method: as §1

silmitasertib = compound: O=C(O)c1ccc2c(c1)nc(Nc1cccc(Cl)c1)c1ccncc12 [silmitasertib]
Summary of the method: as §1

entospletinib = compound: c1cn2cc(-c3ccc4cn[nH]c4c3)nc(Nc3ccc(N4CCOCC4)cc3)c2n1 [entospletinib]
Summary of the method: as §1

[2] = compound: O=C1NC(=O)C(c2cnc3ccccn23)=C1c1cn2c3c(cc(F)cc13)CN(C(=O)N1CCCCC1)CC2
Summary of the method: as §1

Measured: log2 fold change

DGKQ (UniProt P52824)
inactive: [1] 0.104 | vorinostat -0.249 | silmitasertib 0.11 | entospletinib -0.135

DPAGT1 (UniProt Q9H3H5)
inactive: vorinostat -0.033 | silmitasertib 0.044 | [2] 0.031

DNAJB14 (UniProt H7C494)
inactive: [2] -0.183

Taken from the results shown (2 entries):
DPAGT1 (UniProt Q9H3H5)
inactive: vorinostat -0.033 | silmitasertib 0.044 | [2] 0.031

DNAJB14 (UniProt H7C494)
inactive: [2] -0.183

(further entries)

DNAJB9 (UniProt Q9UBS3)
inactive: vorinostat 0.078 | silmitasertib -0.078 | [2] 0.009

DNAJB2 (UniProt P25686)
inactive: [1] 0.089 | vorinostat 0.115 | silmitasertib -0.059 | [2] -0.146 | entospletinib -0.001

DHTKD1 (UniProt Q96HY7)
inactive: vorinostat -0.097 | silmitasertib 0.171 | [2] -0.041

DGKA (UniProt P23743)
inactive: [1] 0.015 | entospletinib 0.054

DIPK1A (UniProt Q5T7M9)
inactive: entospletinib -0.015

DNAJA3 isoform 2 (UniProt Q96EY1)
inactive: [1] 0.084 | vorinostat 0.128 | silmitasertib -0.005 | entospletinib 0.077

DNMT1 isoform 2 (UniProt P26358)
inactive: [1] -0.024 | vorinostat 0.028 | silmitasertib 0.017 | [2] -0.018 | entospletinib 0.001

DNPEP (UniProt B9ZVU2)
inactive: vorinostat 0.265 | silmitasertib 0.023 | [2] 0.037 | entospletinib -0.042
